No constants are given. Whether binding was seen depends on the method and setting. Some results given as binding are weak or reduced against the parent protein; the word gives no strength.
Target: ErbB3 (UniProt P21860)
Experiment: MRD screen, Example 48

Sequences of proteins named here, by UniProt entry; tags and fusion partners are left off. Residues count along the entry.
UniProt P21860, residues 20-643: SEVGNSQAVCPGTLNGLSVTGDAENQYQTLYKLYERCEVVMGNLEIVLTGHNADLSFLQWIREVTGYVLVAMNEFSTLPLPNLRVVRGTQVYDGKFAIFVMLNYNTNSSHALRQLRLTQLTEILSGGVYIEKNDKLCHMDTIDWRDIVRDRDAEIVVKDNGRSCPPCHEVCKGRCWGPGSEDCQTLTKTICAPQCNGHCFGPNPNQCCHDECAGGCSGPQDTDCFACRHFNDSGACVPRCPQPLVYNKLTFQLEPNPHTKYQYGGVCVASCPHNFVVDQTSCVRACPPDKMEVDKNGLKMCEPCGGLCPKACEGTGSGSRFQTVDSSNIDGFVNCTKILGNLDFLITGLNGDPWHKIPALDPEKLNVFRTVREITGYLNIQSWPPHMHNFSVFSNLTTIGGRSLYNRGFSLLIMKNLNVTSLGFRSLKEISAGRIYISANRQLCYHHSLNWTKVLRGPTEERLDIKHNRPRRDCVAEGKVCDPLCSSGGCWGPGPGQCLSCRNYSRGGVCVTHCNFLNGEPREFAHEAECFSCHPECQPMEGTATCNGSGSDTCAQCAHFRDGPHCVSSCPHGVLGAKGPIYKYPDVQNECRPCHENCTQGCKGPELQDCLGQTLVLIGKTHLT

binding	Binder
binds	TSEPYCPFGNPIWKKECIART [EGC905]
binds	IIEPYCPFVNPNWKAQCIARS [EGC900]
binds	SYEPYCPFLNPTWKAECIARI [EGC885]
binds	TSEPYCPFLNPTWKDECIARM [EGC906]
binds	RGEPYCPFLNPAWKNECLART [EGC899]
binds	EDEPYCPFLNPIWKAQCLART [EGC901]
binds	ASEPYCPFLNPTWKEQCIART [EGC911]
binds	MSEPYCPFLNPIWKEQCIARS [EGC896]
binds	LREPYCPFLNPTWKAECIARS [EGC894]
binds	SSEPYCPFLNPTWKAECIARS [EGC883]
binds	LNAPYCPFLNPNWYDQCIHRS [EGC909]
binds	YNKPYCPFQNPTWKEACLARS [EGC882]
binds	RGEPYCPFTNPIWKEQCINRS [EGC897]
binds	DADPYCPFLNPTWKAECLARS [EGC898]
binds	SSDPYCPFLNPTWKQQCIERS [EGC910]
binds	MSRPYCPFLNPIWKEQCIART [EGC881]

binding	Binder
binds	GSEPYCPFLNPTWKEQCIIRT [EGC886]
binds	VEPYCPFLNPTWKDACLART [EGC904]
binds	TSDPYCPFLNPIWKEQCIVRT [EGC892]
binds	GSEPYCPFLNPTWKEQCLARL [EGC895]
binds	FTEPYCPFINPTWKAECIARS [EGC902]
binds	SNEPYCPFLNPTWKAQCLARM [EGC907]
binds	EREPYCPFLNPTWKEQCLARH [EGC893]
binds	SSEPYCPFLNPTWKSQCIARS [EGC888]
binds	YREPYCPFLNPTWKEQCIARS [EGC908]
binds	TSEPYCPFLNPIWKEQCITRT [EGC903]
binds	LSEPYCPFQNPTWYDECISRS [EGC912]
binds	RSEPYCPFLNPIWKDHCIART [EGC889]
binds	SREPYCPFLNPIWKDKCISRT [EGC891]
binds	RSEPYCPFLNPTWKAECIARS [EGC890]
binds	LSEPYCPFQNPIWKDKCIAMS [EGC884]

Further lines, the binder ahead of its results:

Binder	binding
SMEYCFWYHYCQLGV [EGC857]	binds
PREPYCPFHNPIWKNQCIART [EGC863]	binds
AIEPYCPFLNPIWKDQCLARI [EGC880]	binds
DWSKCIQFSLPHDHCLMFM [EGC854]	binds
ARDPYCPFQNPIWYNECIART [EGC869]	binds
VEHLCSKIPFWMFSAWPG [EGC846]	binds
VEWMCYAYPFDPECYYNW [EGC859]	binds
ESEPYCPFLNPIWKAHCIART [EGC865]	binds
ETFSCYVFPFFYECYSTP [EGC832]	binds
YREPYCPFQNPYWKDQCIARY [EGC879]	binds
WTNLFCWGPLCKCLQQ [EGC836]	binds
IFVMCEDSWPVPFCFSNR [EGC858]	binds
YQVMCLHQPFVSFCHYET [EGC839]	binds
ASEPYCPFLNPVWKEQCIARL [EGC862]	binds
SIEPYCPFLNPTWLEQCIARS [EGC876]	binds
LTTPYCPFENPTWKAQCIART [EGC875]	binds
ISDPYCPFVNPIWKEQCIARN [EGC873]	binds
WRVICMARPTGEQCEWVW [EGC851]	binds
PREPYCPFHNPAWKAACVARA [EGC870]	binds

Binder	binding
TNESYCPFLNPTWKAECMARI [EGC871]	binds
DREPYCPFLNPYWKDQCLART [EGC872]	binds
TWLCDCSYWGCWWELG [EGC841]	binds
DSEPYCPFLNPIWKEQCLARM [EGC866]	binds
IIGPYCPFLNPEWKDQCMART [EGC878]	binds
PEYLCWVYPYAPQCWDLV [EGC845]	binds
TSDPYCPFLNPTWKAECIART [EGC867]	binds
SRWECAWIVGYHHWDCRWLF [EGC856]	binds
DEHLCSISRSGMSFAWAG [EGC861]	binds
YIDCVPVLPGFYLPQLG [EGC829]	binds
VQHHCLYRQHSYRECVRHY [EGC828]	binds
WSEPYCPFTNPTWKAACIARS [EGC868]	binds
GTHWCRYYPSYAECYVWL [EGC840]	binds
VWLMCWHYIFCPSKL [EGC844]	binds
RNEPYCPFVNPIWKEQCIIRT [EGC874]	binds
WHQACEYQYYNWECSMGW [EGC831]	binds
KSEPYCPFLNPTWHDQCIARN [EGC877]	binds
LWVGCYIPPWTEWCPIAW [EGC842]	binds
